B1: PduL, phosphate propanoyltransferase (enzyme, UniProt Q187N2 1-209)
chain: MENLLNEIVEEVITRVKKEAFIEVEASGRHVHLSREDVDKLFGEGYTLTKLKDLSQPGQYACKERVTITGPKGSIKNVVVLGPCRNETQVEISLTDGSTLGLKAPIKQSGDLEGTLSIKISTQYGEVELDKGLMVAKRHIHMTPKDAEKFNVCDKEIVEAKVMGQRPLTFDDVVIRVSDSFKTYMHIDYDEANACGYSKGTVAKIIKKA
B2: HadA, isocaprenoyl-CoA:2-hydroxyisocaproate CoA-transferase (enzyme, UniProt Q5U921 1-399)
chain: MLLEGVKVVELSSFIAAPCCAKMLGDWGAEVIKIEPIEGDGIRVMGGTFKSPASDDENPMFELENGNKKGVSINVKSKEGVEILHKLLSEADIFVTNVRVQALEKMGIAYDQIKDKYPGLIFSQILGYGEKGPLKDKPGFDYTAYFARGGVSQSVMEKGTSPANTAAGFGDHYAGLALAAGSLAALHKKAQTGKGERVTVSLFHTAIYGMGTMITTAQYGNEMPLSRENPNSPLMTTYKCKDGRWIQLALIQYNKWLGKFCKVINREYILEDDRYNNIDSMVNHVEDLVKIVGEAMLEKTLDEWSALLEEADLPFEKIQSCEDLLDDEQAWANDFLFKKTYDSGNTGVLVNTPVMFRNEGIKEYTPAPKVGQHTVEVLKSLGYDEEKINNFKDSKVVRY
B3: LdhA, D-lactate dehydrogenase (enzyme, UniProt Q5U922 1-332)
chain: MKILVFGARDYEEPVIKKWSEEHKDVQVDIYPENMTEENVVKAKGYDGISIQQTNYIDNPYIYETLKDAGVKVIASRTAGVDMIHFDLVNENGLIVTNVPSYSPNAIAELAVTQAMNLLRKTPLVKKKVCEGDYRWIAELLGTEVRSITVGVIGTGKIGATSAKLFKGLGANVIAFDQYPNSDLNDILTYKDSLEDLLKEADLITLHTPLLEGTKHMINKDTLAIMKDGAYIVNTGRGGLINTGDLIEALESGKIRAAALDTFETEGLFLNKKMNPGELTDPEINKLLSMEQVIFTHHLGFFTSTAIENIVYSSLSSAVEVIKTGTATNRVN

These are yes or no findings as the source states them, for the method shown. In cells and extracts the contact can be indirect. A yes stands for co-enrichment or nearness to the bait. Other partners may have been found.

This assay concerns the target N-terminally StrepII-tagged PpiB of C. difficile (CdPpiB) (C. difficile str. 630Δerm). The experiment in a line: affinity purification with mass spectrometry; in vivo cross-linking with 0.125 % formaldehyde (30 min, 37°C) in C. difficile 630ΔermΔppiB + PpiB-NStrep; StrepII-PpiB and cross-linked partners purified on Strep-Tactin; decrosslinking at 95°C, SDS-PAGE, seven bands cut out, LC-MS; hits with at least 15% coverage and two or more unique peptides; ribosomal proteins discarded.
Regarding B1, the binding entry is “binds”.
Take B2: the binding entry is reported as “binds”.
The result for B3 reads “binds”.
